Laboratory results taken from PubChem BioAssay AID588590 (National Center for Advancing Translational Sciences (NCATS), 2011).
Out of some 390,000 compounds screened, about 4,000 (1%) were called active. Inconclusive results, whose numbers are uncertain, are shown with a selection of clear calls. Calls follow the shape of the dose curve; as a rule, active = well fitted inhibition curve with a large enough effect; inconclusive = small, poorly fitted or top-dose-only effect, or another doubt; inactive = no such curve, though single readings can be large or run the other way. Potencies beside an inconclusive call are fits to weak or partial responses and may not hold up.

Chains of the proteins cited; added tags and fusions are not shown. Lines headed by an entry give the natural chain unless they say otherwise; changes in a name come on top.
UniProt Q9UNA4: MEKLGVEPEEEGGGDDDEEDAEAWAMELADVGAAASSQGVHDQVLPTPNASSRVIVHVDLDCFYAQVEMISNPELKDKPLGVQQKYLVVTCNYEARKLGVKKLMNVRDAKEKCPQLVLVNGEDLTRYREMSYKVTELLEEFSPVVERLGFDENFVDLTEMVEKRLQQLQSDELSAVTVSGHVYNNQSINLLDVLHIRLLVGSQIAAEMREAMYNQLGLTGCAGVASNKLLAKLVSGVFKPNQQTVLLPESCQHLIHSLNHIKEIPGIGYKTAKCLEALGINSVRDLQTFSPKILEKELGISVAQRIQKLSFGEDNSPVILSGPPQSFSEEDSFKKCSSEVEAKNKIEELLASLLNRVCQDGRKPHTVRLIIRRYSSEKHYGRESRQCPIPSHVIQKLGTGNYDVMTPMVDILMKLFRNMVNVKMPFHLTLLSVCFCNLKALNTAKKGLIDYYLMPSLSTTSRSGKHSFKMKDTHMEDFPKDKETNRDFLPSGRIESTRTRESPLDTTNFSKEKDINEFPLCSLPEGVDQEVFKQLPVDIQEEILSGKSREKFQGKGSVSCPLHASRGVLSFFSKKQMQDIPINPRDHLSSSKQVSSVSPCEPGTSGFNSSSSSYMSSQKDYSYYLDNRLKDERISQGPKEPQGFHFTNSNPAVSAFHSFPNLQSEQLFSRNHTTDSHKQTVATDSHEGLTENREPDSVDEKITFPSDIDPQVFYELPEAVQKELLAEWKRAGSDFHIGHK

Target: DNA polymerase iota (Homo sapiens) (UniProt Q9UNA4)
Test: qHTS for Inhibitors of Polymerase Iota
Conditions: Pol iota fluorescent replication assay, 10 min; series mostly up to 115 µM; activity, negative = inhibition: at the top concentration
In short: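 Pol iota at 10 nM preincubated 15 min with compounds at room temperature; reaction started with fluorescent substrate, 50 nM final. Fluorescence read kinetically at 0 and 10 min; buffer-only wells as negative control.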
Potency is read from the fitted curve at half-maximal effect.

SMILES | Potency | activity, negative = inhibition
CN(CC(=O)Nc1ccc(Cl)cc1)C(=O)CCc1ccccc1 | active: 89.1 µM | 
Cc1cn(C)c(CC(=O)N2CCN(c3ccccc3F)CC2)c1C(=O)O | inconclusive: 89.1 µM [inhibitor, partial curve, poor fit] | 
C#CCOCCOCCOCCNc1nc(OC)nc(N2CCN(C(=O)[C@H](CCC(=O)O)n3cc(C(N)CO)nn3)CC2)n1 (some centres not stated) | inconclusive: 56.2 µM [inhibitor, partial curve, poor fit] | 
Cc1ccccc1N1C(S)=C(C#N)C(=O)NC12CCCCC2 | inconclusive: 39.8 µM [inhibitor, single point] | 
Cn1c(SCC(=O)Nc2ccc3nc(SCC(=O)N4CCCC4)sc3c2)nnc1-c1ccccc1 | inconclusive: 11.2 µM [inhibitor, full curve, poor fit] | 
Oc1ccc(NCc2ccc(OCc3ccccc3Cl)cc2)cc1 | active: 17.8 µM | 
CC(=O)N1CCc2cc(Br)cc(S(=O)(=O)N3CCN(c4cccc(C)c4)C(C)C3)c21 (configuration not stated) | inconclusive: 0.708 µM [inhibitor, full curve, poor fit] | 
O=C(CN(Cc1ccccc1F)S(=O)(=O)c1ccc(Cl)cc1)NCC1CCCO1 (configuration not stated) | inconclusive: 89.1 µM [inhibitor, single point] | 
Cc1cc(=O)oc2cc(OCC(=O)NCCCn3ccnc3)ccc12 | inconclusive: 10 µM [inhibitor, partial curve, poor fit] | 
Cc1ccc(C(=O)CNc2ccc(Cl)cc2)cc1 | inconclusive: 20 µM [inhibitor, partial curve, poor fit] | 
C[N+]1(CC(=O)c2ccccc2)CCc2ccccc2C1 (configuration not stated) |  | inactive: -13.5%
O=C(CCc1nnc2ccc(NCc3ccccc3Cl)nn12)NCC1CCN(C2CCCC2)C1 (configuration not stated) | inconclusive: 22.4 µM [inhibitor, full curve] | 
COc1ccccc1OCC(=O)NCC1(N(C)C)CCCCC1 |  | inactive: 22.1%
COc1ccc(NC(=O)Cn2nnc(C(=O)NCc3cccs3)c2N)c(OC)c1 | inconclusive: 25.1 µM [inhibitor, full curve, poor fit] | 
Cc1ccc(C2C(C#N)=C(N)Oc3c2oc(CO)cc3=O)o1 (configuration not stated) | inconclusive: 39.8 µM [inhibitor, single point] | 
O=C(Cn1ncc2c(Cl)cccc21)NCc1cccc(Br)c1 | inconclusive: 89.1 µM [inhibitor, partial curve, poor fit] | 
CCCC(=O)OCCNc1cc(Sc2nc3ccccc3[nH]2)c2nonc2c1[N+](=O)[O-] | inconclusive: 17.8 µM [inhibitor, full curve, poor fit] | 
Cc1noc(C)c1CCC(=O)N1CCCC(N2CCN(c3ccc(F)cc3)CC2)C1 (configuration not stated) |  | inactive: 14.6%
Cc1ccc(-c2ccc(CCC(=O)O)n2CC(=O)O)cc1 | inconclusive: 50.1 µM [inhibitor, partial curve, poor fit] | 
CC1(C)CC(=O)c2cnc(NC(=O)CSc3nc4ccccc4o3)nc2C1 | inconclusive: 12.6 µM [inhibitor, partial curve, poor fit] | 
COc1ccc(-c2cc3ccccc3n2CC(O)CN2CCCCC2)cc1 (configuration not stated) | inconclusive: 22.4 µM [inhibitor, full curve, poor fit] | 

Part of the list above in order of length of the SMILES, low to high.
SMILES | Potency | activity, negative = inhibition
Cc1ccc(C(=O)CNc2ccc(Cl)cc2)cc1 | inconclusive: 20 µM [inhibitor, partial curve, poor fit] | 
Oc1ccc(NCc2ccc(OCc3ccccc3Cl)cc2)cc1 | active: 17.8 µM | 
Cc1ccc(-c2ccc(CCC(=O)O)n2CC(=O)O)cc1 | inconclusive: 50.1 µM [inhibitor, partial curve, poor fit] | 
CN(CC(=O)Nc1ccc(Cl)cc1)C(=O)CCc1ccccc1 | active: 89.1 µM | 
Cc1ccc(C2C(C#N)=C(N)Oc3c2oc(CO)cc3=O)o1 (configuration not stated) | inconclusive: 39.8 µM [inhibitor, single point] | 
COc1ccc(-c2cc3ccccc3n2CC(O)CN2CCCCC2)cc1 (configuration not stated) | inconclusive: 22.4 µM [inhibitor, full curve, poor fit] | 
CC1(C)CC(=O)c2cnc(NC(=O)CSc3nc4ccccc4o3)nc2C1 | inconclusive: 12.6 µM [inhibitor, partial curve, poor fit] | 
Cc1noc(C)c1CCC(=O)N1CCCC(N2CCN(c3ccc(F)cc3)CC2)C1 (configuration not stated) |  | inactive: 14.6%
Cn1c(SCC(=O)Nc2ccc3nc(SCC(=O)N4CCCC4)sc3c2)nnc1-c1ccccc1 | inconclusive: 11.2 µM [inhibitor, full curve, poor fit] | 
C#CCOCCOCCOCCNc1nc(OC)nc(N2CCN(C(=O)[C@H](CCC(=O)O)n3cc(C(N)CO)nn3)CC2)n1 (some centres not stated) | inconclusive: 56.2 µM [inhibitor, partial curve, poor fit] | 

More results follow:

SMILES | Potency | activity, negative = inhibition
CC(=O)Oc1ccc(-c2nc3cc(Cl)ccc3c(=O)o2)cc1 | inconclusive: 100 µM [inhibitor, partial curve, poor fit] | 
CCCn1c(SCC(=O)N2c3ccccc3Sc3ccccc32)nc2c1c(=O)n(C)c(=O)n2C | active: 89.1 µM | 
O=C(N/N=C/c1cccc([N+](=O)[O-])c1)C1CC(=O)N(c2ccc(F)cc2)C1 (configuration not stated) | inconclusive: 89.1 µM [inhibitor, single point] | 
COc1ccc(/C(N)=N/OC(=O)CCCc2ccccc2)cc1 | inconclusive: 100 µM [inhibitor, single point] | 
CC1=C(C(=O)Nc2ccc(F)cc2F)C2(CCCCCC2)OC1=O |  | inactive: -6.45%
c1cc(SSc2ccncc2)ccn1 | inconclusive: 11.2 µM [inhibitor, partial curve, poor fit] | 
COc1cc(/C=N/NC(=O)c2ccc(Cl)c(S(N)(=O)=O)c2)ccc1OCC(N)=O | inconclusive: 17.8 µM [inhibitor, full curve, poor fit] | 
C(=C\c1ccnc2ccccc12)/c1cccnc1 |  | inactive: 0.691%
O=C(Oc1csc(=S)n1C(=O)c1ccccc1)c1ccccc1 |  | inactive: 15.5%
Cc1noc(C)c1C(=O)N(CC(=O)Nc1ccc(Cl)c(C(F)(F)F)c1)Cc1ccco1 |  | inactive: -35.1%
CCOC(=O)c1cnc(-n2[nH]c(C)cc2=O)[nH]c1=O | active: 0.891 µM | 
O=C(c1ccco1)N1CCN(C(c2ccccc2Cl)c2nnnn2Cc2cccs2)CC1 (configuration not stated) | inconclusive: 39.8 µM [inhibitor, single point] | 
CN=C1NN=C(c2cc(C)n(-c3c(C)n(C)n(-c4ccccc4)c3=O)c2C)CS1 | inconclusive: 44.7 µM [inhibitor, partial curve, poor fit] | 
O=C1COc2ccc(-c3csc(-c4ccc(Cl)cc4)n3)cc2N1 | inconclusive: 89.1 µM [inhibitor, single point] | 
CCOC(=O)c1nnc2ccnn2c1N | inconclusive: 112 µM [inhibitor, single point] | 
Cc1ccc(CNC(=O)CO/N=C/c2ccc3c(c2)OCO3)cc1 | inconclusive: 79.4 µM [inhibitor, single point] | 
NC(=S)NNc1cccc2cccnc12 | active: 11.2 µM | 
Cc1cc2nc(-c3cccc(NC(=O)COc4ccc(Cl)c(C)c4)c3)oc2cc1C | inconclusive: 6.31 µM [inhibitor, full curve] | 
O=C(CCCCn1c(=S)[nH]c2ccsc2c1=O)NCc1ccc2c(c1)OCO2 | inconclusive: 25.1 µM [inhibitor, partial curve, poor fit] | 
Cn1c(=O)[nH]c(=O)c2c1nc1n2CCN1c1ccccc1 | active: 79.4 µM | 
